Assay results from PMC8874669.
No constants are given. Whether binding was seen depends on the method and setting. Some entries that bind do so weakly or less than the wild type.

Tests used:
[1] = target: T1, cytoplasmic tail of DCHS1 (amino acids 2962–3191), LexA bait (human) (UniProt Q96JQ0); assay: two-hybrid; LexA-DCHS1 (aa 2962-3191) bait screened against a random-primed human placenta cDNA library in pP6; mating of YHGX13 and L40ΔGal4; medium lacking Trp, Leu, His with 50 mM 3-aminotriazole
T1 sequence: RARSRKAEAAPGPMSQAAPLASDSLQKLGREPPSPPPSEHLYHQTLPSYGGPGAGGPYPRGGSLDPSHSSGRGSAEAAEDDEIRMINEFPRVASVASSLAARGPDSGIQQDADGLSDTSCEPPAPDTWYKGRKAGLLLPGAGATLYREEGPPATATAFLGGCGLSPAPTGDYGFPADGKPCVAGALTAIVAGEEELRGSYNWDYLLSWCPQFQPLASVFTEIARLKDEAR

[2] = target: full-length LIX1L, LexA bait (human) (UniProt Q8IVB5); assay: two-hybrid; full-length LIX1L bait in pB27 screened against a random-primed human ventricle and embryo heart cDNA library in pP6; medium lacking Trp, Leu, His with 2 mM 3-aminotriazole

B1: Lix1-Like (LIX1L), prey clones from the human placenta library (domain or fragment, UniProt Q8IVB5 87-311)
chain: SFAKHTQGYGRVNVVEALQEFWQMKQSRGADLKNGALVVYEMVPSNSPPYVCYVTLPGGSCFGSFQFCPTKAEARRSAAKIALMNSVFNEHPSRRITDEFIEKSVSEALASFNGNREEADNPNTGIGAFRFMLESNKGKSMLEFQELMTVFQLLHWNGSLKAMRERQCSRQEVLAHYSHRALDDDIRHQMALDWVSREQSVPGALSRELASTERELDEARLAGKE
In the case of B1, the binding [1] is reported as “binds”.

B2: DCHS1, prey clones from the human ventricle and embryo heart library (domain or fragment, UniProt Q96JQ0 3137-3189)
chain: ADGKPCVAGALTAIVAGEEELRGSYNWDYLLSWCPQFQPLASVFTEIARLKDE
For B2, the binding [2] was “binds”.

B3: septin-9 (SEPT9), prey clones from the human ventricle and embryo heart library (domain or fragment, UniProt Q9UHD8 518-553)
chain: TKWGTIEVENTTHCEFAYLRDLLIRTHMQNIKDITS
In the case of B3, the binding [2] is reported as “binds”.
